These are yes or no findings as the source states them, for the method shown. Binding seen in cells or lysates may run through a third protein. Binding can be weak; no strength is given. For some of these results: Tags and fused reporters may be left off the sequences shown.
B1: NV-Ngb (protein, UniProt Q9NPG2 1-151)
chain: MERPEPELIRQSWRAVSRSPLEHGTVLFARLFALEPDLLPLFQYNCRQFSSPEDCLSSPEFLDHIRKVMLVIDAAVTNVEDLSSLEEYLASLGRKHRAVGVKLSSFSTVGESLLYMLEKCLGPAFTPATRAAWSQLYGAVVQAMSRGWDGE
B2: CV-Ngb (protein, UniProt Q9NPG2 1-151)
chain: MERPEPELIRQSWRAVSRSPLEHGTVLFARLFALEPDLLPLFQYNCRQFSSPEDCLSSPEFLDHIRKVMLVIDAAVTNVEDLSSLEEYLASLGRKHRAVGVKLSSFSTVGESLLYMLEKCLGPAFTPATRAAWSQLYGAVVQAMSRGWDGE
B3: EGFP-tagged Ngb H64L (pEGFP-N1-Ngb H64L) (protein, UniProt Q9NPG2 1-151)
chain: MERPEPELIRQSWRAVSRSPLEHGTVLFARLFALEPDLLPLFQYNCRQFSSPEDCLSSPEFLDLIRKVMLVIDAAVTNVEDLSSLEEYLASLGRKHRAVGVKLSSFSTVGESLLYMLEKCLGPAFTPATRAAWSQLYGAVVQAMSRGWDGE
B4: EGFP-tagged Ngb E53Q (pEGFP-N1-Ngb E53Q) (protein, UniProt Q9NPG2 1-151)
chain: MERPEPELIRQSWRAVSRSPLEHGTVLFARLFALEPDLLPLFQYNCRQFSSPQDCLSSPEFLDHIRKVMLVIDAAVTNVEDLSSLEEYLASLGRKHRAVGVKLSSFSTVGESLLYMLEKCLGPAFTPATRAAWSQLYGAVVQAMSRGWDGE
B5: EGFP-tagged Ngb E118Q (pEGFP-N1-Ngb E118Q) (protein, UniProt Q9NPG2 1-151)
chain: MERPEPELIRQSWRAVSRSPLEHGTVLFARLFALEPDLLPLFQYNCRQFSSPEDCLSSPEFLDHIRKVMLVIDAAVTNVEDLSSLEEYLASLGRKHRAVGVKLSSFSTVGESLLYMLQKCLGPAFTPATRAAWSQLYGAVVQAMSRGWDGE
B6: EGFP-tagged Ngb wild type (pEGFP-N1-Ngb WT) (protein, UniProt Q9NPG2 1-151)
chain: MERPEPELIRQSWRAVSRSPLEHGTVLFARLFALEPDLLPLFQYNCRQFSSPEDCLSSPEFLDHIRKVMLVIDAAVTNVEDLSSLEEYLASLGRKHRAVGVKLSSFSTVGESLLYMLEKCLGPAFTPATRAAWSQLYGAVVQAMSRGWDGE
B7: EGFP-tagged Ngb wild type (pEGFP-C1-Ngb WT) (protein, UniProt Q9NPG2 1-151)
chain: MERPEPELIRQSWRAVSRSPLEHGTVLFARLFALEPDLLPLFQYNCRQFSSPEDCLSSPEFLDHIRKVMLVIDAAVTNVEDLSSLEEYLASLGRKHRAVGVKLSSFSTVGESLLYMLEKCLGPAFTPATRAAWSQLYGAVVQAMSRGWDGE
B8: EGFP-tagged Ngb Δ1–6 (domain or fragment, UniProt Q9NPG2 7-151)
chain: ELIRQSWRAVSRSPLEHGTVLFARLFALEPDLLPLFQYNCRQFSSPEDCLSSPEFLDHIRKVMLVIDAAVTNVEDLSSLEEYLASLGRKHRAVGVKLSSFSTVGESLLYMLEKCLGPAFTPATRAAWSQLYGAVVQAMSRGWDGE
B9: EGFP-tagged Ngb Δ123–151 (domain or fragment, UniProt Q9NPG2 1-122)
chain: MERPEPELIRQSWRAVSRSPLEHGTVLFARLFALEPDLLPLFQYNCRQFSSPEDCLSSPEFLDHIRKVMLVIDAAVTNVEDLSSLEEYLASLGRKHRAVGVKLSSFSTVGESLLYMLEKCLG
B10: EGFP-tagged Ngb Δ128–151 (domain or fragment, UniProt Q9NPG2 1-127)
chain: MERPEPELIRQSWRAVSRSPLEHGTVLFARLFALEPDLLPLFQYNCRQFSSPEDCLSSPEFLDHIRKVMLVIDAAVTNVEDLSSLEEYLASLGRKHRAVGVKLSSFSTVGESLLYMLEKCLGPAFTP

biological target: CV-p38; experiment: split reporter; BiFC in living N2a cells co-transfected 1:1 with NV (Venus 1–157) and CV (Venus 137–238) fusions; Venus signal photographed at 24 h of transfection; normoxia and OGD-1 h/Re-6 h (signal stronger after OGD/Re)

binding, binds:
B1

biological target: NV-p38; experiment: as above

binding, binds:
B2

biological target: GST-p38; experiment: pull-down; N2a cells co-transfected 1:1 with pDEST27-GST-p38 and pEGFP-Ngb WT, truncates or mutants; OGD-1 h/Re-24 h (mutants also under normoxia); total soluble proteins on glutathione sepharose beads overnight at 4 °C; blots with anti-GFP and anti-GST

binding, binds:
B3, B4, B5, B6, B7, B8, B9, B10

Source: PMC5833339
